Record: PubChem BioAssay AID504791 (Drosophila RNAi Screening Center, 2011)
Screen: 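Genes of the fly required for silencing by miRNA, siRNA or endo-siRNA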 (primary screen). System: Drosophila S2-derived reporter cells. Reagent: long dsRNA against Drosophila genes, about 150-250 ng dsRNA per well (siRNA assay); about 80-120 ng (miRNA assay). Duration: about 5 days (siRNA assay); about 4 days (miRNA assay). Challenge: copper sulfate induction of reporters: 25 µM (siRNA assay); 200 mM stated (miRNA assay), 1-2 days before reading. Detection: 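Dual luciferase assay: Renilla to firefly signal ratio in each well, scaled to the mean ratio of its plate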. Rule for the call: 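a well was a first-pass pick when its plate-scaled ratio rose above 1.5 (siRNA assay) or 1.6 (miRNA assay), or dropped below 0.6; a gene counted only if two separate dsRNAs agreed on retest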.
In all, the deposit lists about 23,000 reagents; below is a random part of those with a known target gene and a result. Of all reagents, 199 (0.86%) are marked active. 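Plate-scaled ratios behind the calls are not deposited; printed light signals are raw; many rows marked increased or decreased are still called inactive.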 A plus sign joins genes that one reagent is predicted to hit. Reagent sequences are not shown. Not stated in the record: the direction of the score.

target gene | DRSC id | stable siRNA reporter change | miRNA reporter change | stable assay Renilla, run 1 (luminescence) | stable assay firefly, run 1 (luminescence) | Call
Eglp3 (Entomoglyceroporin 3) | DRSC04293 | – | – | 6244 | 3.36e5 | inactive
EAChm (Enhancer of Acetyltransferase Chameau) | DRSC10010 | – | – | 7898 | 3.15e5 | inactive
Trpml + CG42638 | DRSC11032 | – | – | 7682 | 2.75e5 | inactive
usp (ultraspiracle) | DRSC18847 | – | – | 6311 | 4.09e5 | inactive
U2af38 (U2 small nuclear riboprotein auxiliary factor 38) | DRSC00796 | – | reporter ratio lowered past the hit cutoff | 10197 | 7.35e5 | inactive
CG8132 | DRSC16383 | – | – | 6799 | 3.32e5 | inactive
simj (simjang) | DRSC10942 | – | – | 6115 | 3.80e5 | inactive
CG9646 | DRSC07342 | – | – | 7307 | 4.07e5 | inactive
CG6712 | DRSC02981 | – | – | 11764 | 1.66e6 | inactive
CG6712 | DRSC21690 | – | – | 8202 | 3.70e5 | inactive
kipf (kipferl) | DRSC15446 | – | – | 3891 | 3.42e5 | inactive
kipf (kipferl) | DRSC22871 | – | – | 3592 | 3.37e5 | inactive
Alr (Augmenter of liver regeneration) | DRSC19469 | – | – | 6055 | 5.74e5 | inactive
CG32107 | DRSC09221 | – | – | 5390 | 2.84e5 | inactive
CG13380 + CG4174 | DRSC09988 | – | – | 8435 | 3.29e5 | inactive
CG13380 + CG4174 | DRSC10406 | – | – | 6755 | 2.87e5 | inactive
ATPsynGL (ATP synthase, subunit G-like) | DRSC03027 | – | – | 7235 | 4.05e5 | inactive
galla-2 | DRSC10936 | – | – | 3767 | 5.01e5 | inactive
galla-2 | DRSC21949 | – | – | 8073 | 4.93e5 | inactive
Acbp2 (Acyl-CoA binding protein 2) | DRSC11141 | – | – | 4987 | 3.51e5 | inactive
eIF2alpha (eukaryotic translation initiation factor 2 subunit alpha) | DRSC20327 | – | – | 8762 | 4.86e5 | inactive
CG1840 | DRSC19806 | – | – | 7358 | 4.49e5 | inactive
Spag1 (Spag1 axonemal dynein assembly factor) | DRSC15331 | – | – | 6187 | 3.58e5 | inactive
CG33937 (retired record) | DRSC15148 | – | – | 7571 | 6.74e5 | inactive
CG13675 | DRSC08908 | – | – | 4263 | 3.83e5 | inactive
CG13675 | DRSC10034 | reporter ratio raised past the hit cutoff | – | 6943 | 2.34e5 | inactive
CG13675 | DRSC23124 | – | – | 4795 | 3.06e5 | inactive
ss (spineless) | DRSC17069 | – | – | 7023 | 3.88e5 | inactive
CG8034 | DRSC20076 | – | – | 7847 | 3.79e5 | inactive
ymp (yellow-emperor) | DRSC13720 | – | – | 7867 | 5.52e5 | inactive
ymp (yellow-emperor) | DRSC14482 | – | – | 6326 | 3.34e5 | inactive
Spx (Spliceosomal protein on the X) | DRSC18720 | – | reporter ratio lowered past the hit cutoff | 6546 | 4.58e5 | inactive
Spx (Spliceosomal protein on the X) | DRSC23542 | – | reporter ratio lowered past the hit cutoff | – | – | inactive
CG17528 | DRSC07761 | – | – | 5319 | 3.21e5 | inactive
en (engrailed) | DRSC07609 | – | – | 5947 | 3.19e5 | inactive
CG5359 | DRSC15780 | – | – | 6031 | 5.28e5 | inactive
DCP1 (Decapping protein 1) | DRSC04091 | – | – | 13839 | 1.83e6 | inactive
Amacr (Alpha-methylacyl-CoA racemase) | DRSC03198 | – | – | 9921 | 5.03e5 | inactive
obst-F (obstructor-F) | DRSC10805 | – | – | 5974 | 4.25e5 | inactive
Cyp4d8 (Cytochrome P450 4d8) | DRSC11131 | – | – | 7615 | 3.66e5 | inactive
Ccdc114 (Coiled-coil domain containing protein 114) | DRSC15025 | – | – | 7981 | 4.78e5 | inactive
CG15252 | DRSC17981 | – | – | 5208 | 3.59e5 | inactive
CG13751 | DRSC06422 | – | – | 6726 | 4.24e5 | inactive
Mst27D (Male specific transcript 27D) | DRSC00967 | – | – | 5651 | 5.09e5 | inactive
CG13075 | DRSC09958 | – | – | 6538 | 3.65e5 | inactive
krz (kurtz) | DRSC16979 | – | – | 7828 | 4.93e5 | inactive
Pez | DRSC03397 | – | – | 8061 | 4.23e5 | inactive
CG31955 | DRSC00285 | reporter ratio lowered past the hit cutoff | – | 3591 | 4.28e5 | inactive
CG31189 | DRSC16198 | – | – | 6667 | 2.51e5 | inactive
Npc2h (Niemann-Pick type C-2h) | DRSC14297 | – | – | 5335 | 3.56e5 | inactive
CG13114 | DRSC02212 | – | – | 6508 | 4.01e5 | inactive
CG12065 | DRSC17798 | – | – | 7363 | 3.95e5 | inactive
CG12065 | DRSC17799 | – | – | 5468 | 2.57e5 | inactive

An excerpt from above, limited to “stable assay firefly, run 1 (luminescence)”.
Alr (Augmenter of liver regeneration) [DRSC19469]: 5.74e5
CG32107 [DRSC09221]: 2.84e5
CG13380 + CG4174 [DRSC09988]: 3.29e5
CG13380 + CG4174 [DRSC10406]: 2.87e5
ATPsynGL (ATP synthase, subunit G-like) [DRSC03027]: 4.05e5
galla-2 [DRSC10936]: 5.01e5
galla-2 [DRSC21949]: 4.93e5
Acbp2 (Acyl-CoA binding protein 2) [DRSC11141]: 3.51e5
eIF2alpha (eukaryotic translation initiation factor 2 subunit alpha) [DRSC20327]: 4.86e5

Next records:
target gene | DRSC id | stable siRNA reporter change | miRNA reporter change | stable assay Renilla, run 1 (luminescence) | stable assay firefly, run 1 (luminescence) | Call
eas (easily shocked) | DRSC20329 | – | – | 4827 | 3.54e5 | inactive
CG12171 | DRSC12200 | – | – | 7651 | 5.17e5 | inactive
CG6432 | DRSC16039 | – | – | 8622 | 2.97e5 | inactive
ftz (fushi tarazu) | DRSC12626 | – | – | 7314 | 4.79e5 | inactive
Pex16 (Peroxin 16) | DRSC11750 | – | – | 9181 | 3.58e5 | inactive
Dolk (Dolichol kinase) | DRSC07143 | – | – | 5687 | 3.11e5 | inactive
CG34459 | DRSC06973 | – | – | 6995 | 4.38e5 | inactive
CG32459 | DRSC11852 | – | – | 7071 | 4.80e5 | inactive
ey (eyeless) | DRSC17173 | – | – | 6519 | 3.59e5 | inactive
mrt (martik) | DRSC15484 | – | – | 6356 | 3.45e5 | inactive
CG1924 | DRSC19823 | – | – | 4332 | 3.91e5 | inactive
r (rudimentary) | DRSC19813 | – | – | 3008 | 3.18e5 | inactive
r (rudimentary) | DRSC19814 | – | – | 3459 | 3.44e5 | inactive
CG33784 | DRSC12764 | – | – | 6750 | 3.82e5 | inactive
CG11350 | DRSC08181 | – | – | 4363 | 4.30e5 | inactive
CG7006 | DRSC16169 | – | – | 8622 | 3.17e5 | inactive
Chd1 (Chromodomain-helicase-DNA-binding protein 1) | DRSC00745 | – | – | 25756 | 1.41e5 | inactive
CG30075 | DRSC05484 | – | – | 7507 | 4.41e5 | inactive
Ir7f (Ionotropic receptor 7f) | DRSC18012 | – | – | 6280 | 3.73e5 | inactive
CG31997 | DRSC17105 | – | – | 7856 | 3.89e5 | inactive
CG31523 | DRSC12009 | – | – | 5392 | 4.21e5 | inactive
CG31523 | DRSC12337 | – | – | 4280 | 3.93e5 | inactive
fs(1)Ya (female sterile (1) Young arrest) | DRSC18776 | – | – | 7439 | 3.15e5 | inactive
fs(1)Ya (female sterile (1) Young arrest) | DRSC23058 | – | – | 4519 | 2.51e5 | inactive
Cln7 | DRSC11005 | – | – | 6930 | 3.68e5 | inactive
His2Av (Histone H2A variant) | DRSC16702 | – | – | 14648 | 5.70e5 | inactive
ImpL1 (Ecdysone-inducible gene L1) | DRSC11197 | – | – | 7715 | 4.85e5 | inactive
Cpr49Ag (Cuticular protein 49Ag) | DRSC07203 | – | – | 6271 | 3.47e5 | inactive
Veneno | DRSC16537 | – | – | 8351 | 4.29e5 | inactive
Cpr66D (Cuticular protein 66D) | DRSC10640 | – | – | 5287 | 2.53e5 | inactive
Cpr66D (Cuticular protein 66D) | DRSC10646 | – | reporter ratio lowered past the hit cutoff | 5259 | 2.44e5 | inactive
Cpr66D (Cuticular protein 66D) | DRSC23178 | – | – | 3655 | 3.63e5 | inactive
